Data published in US6677302B2, “Compositions and methods for the treatment of viral disorders” (The Trustees of Boston University, priority 1996, dated 2004).
Some results were stated once for a whole list of compounds, not compound by compound.

Experiment: Clinical pharmacokinetics of butyrate infusion
Type: in vivo, human
Details: adults; IV infusion
Method: Clinical experience with butyrates have been performed in children with acute myelogenous leukemia in Israel, and in children with neuroblastoma (K. Prasad, Life Sci. 27:1351-58, 1980). […] Eleven pediatric patients and twelve adults with β-hemoglobinopathies were treated with IV arginine butyrate at a starting dose of 500 mg/kg/day for 2-7 weeks. If no side effects were noted, the rate was increased by 250 mg/kg/day to a final rate of 1500 mg/kg/day in 4 patients, and 2000 mg/kg/day in 2 patients. […] This rise in BUN returned to normal within 12 hours of discontinuation of drug, and is thought to be secondary to effect of arginine upon ureagenesis. […] Peak serum levels of butyrate ranged between 0.04-0.05 mM, and butyrate was not detectable 15 minutes after infusion was discontinued. Plasma arginine levels were also rapidly cleared, with a T1/2 of 15 minutes, and baseline arginine levels were reached within 12 hours after discontinuation of infusion.
Butyric acid is a short chain fatty acid present in foods such as dairy products. Arginine is an amino acid which is commonly used in hyperalimentation solutions in hospitals throughout the country. Butyric acid was obtained from Aldrich, catalog number W-212. […]
In vitro, peaks induction of EBV-TK plateaus at serum level of around 1 mM. […] Therefore, dose levels up to 2,000 mg/kg/day, were evaluated in an attempt to reach serum levels of 1 mM. […]

CCCC(=O)[O-].[Na+] [NaB, sodium butyrate, reference compound]
time for elevated plasma butyrate levels to return to normal after discontinuation: ≤ 15 min
